PubChem BioAssay AID1259405 | NCATS – 2018
Test: 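Silenced genes that increase secreted GFP made by CHO cells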 (primary screen). Cell system: Chinese hamster CHO-K1 ovary cells with stable secreted eGFP expression. Reagent: single siRNA against mouse genes, 0.8 pmol siRNA per well (2 µl of 400 nM stock). Timing: 3 days. Read-out: 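Per-well intracellular GFP measured by laser scanning cytometry, plus viability from ATP luminescence, each relative to plate median of non-targeting control wells, in %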. Direction: GFP, % of control: higher = more GFP per well, higher productivity; viability (ATP), % of control: higher = more viable cells (more ATP). Call rule: 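Called active when intracellular GFP, relative to negative control, is at or above 120%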.
The whole screen tested about 50,000 reagents; this is a part drawn at random. About 4,000 of them (8%) were called active. 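Mouse siRNA library applied to hamster cells; one well for each siRNA.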 A number with no mark means an inactive call. Reagents against one gene are numbered here.

gene | siRNA no. | GFP, % of control | viability (ATP), % of control
Ccdc38 (GeneID 237465) | 1 | 69.1 | 80.1
Ccdc38 (GeneID 237465) | 2 | 69.7 | 98
Ccdc38 (GeneID 237465) | 3 | 74.8 | 86.1
Serpinc1 (GeneID 11905) | 1 | 91.7 | 51.1
Serpinc1 (GeneID 11905) | 2 | 42.5 | 59.4
Serpinc1 (GeneID 11905) | 3 | 45.9 | 68.8
2310022B05Rik (GeneID 69551) | 1 | 73.5 | 69.2
2310022B05Rik (GeneID 69551) | 2 | 99.3 | 118
2310022B05Rik (GeneID 69551) | 3 | 34.9 | 57.5
Akr1b8 (GeneID 14187) | 1 | 45.6 | 51.4
Akr1b8 (GeneID 14187) | 2 | 72.6 | 73.8
Akr1b8 (GeneID 14187) | 3 | 80.6 | 68.2
Pcdhb9 (GeneID 93880) | 1 | 64.8 | 91.4
Pcdhb9 (GeneID 93880) | 2 | 39.2 | 42.1
Pcdhb9 (GeneID 93880) | 3 | 77.8 | 71
Alms1 (GeneID 236266) | 1 | 16 | 29.8
Alms1 (GeneID 236266) | 2 | 86.8 | 80.7
Alms1 (GeneID 236266) | 3 | 170 (active) | 127
Smim14 (GeneID 68552) | 1 | 86.7 | 77.7
Smim14 (GeneID 68552) | 2 | 91.4 | 57.3
Smim14 (GeneID 68552) | 3 | 87.7 | 83.7
Klhl20 (GeneID 226541) | 1 | 70.8 | 81.9
Klhl20 (GeneID 226541) | 2 | 80.4 | 54.1
Rgn (GeneID 19733) | 1 | 83.4 | 61.6
Rgn (GeneID 19733) | 2 | 86.7 | 73.6
Rgn (GeneID 19733) | 3 | 61.5 | 60.4
Tmod2 (GeneID 50876) | 1 | 62.1 | 73.5
Tmod2 (GeneID 50876) | 2 | 95.8 | 98
Tmod2 (GeneID 50876) | 3 | 60.6 | 71.4
Art2a (GeneID 11871) | 1 | 31.4 | 27.8
Art2a (GeneID 11871) | 2 | 65.5 | 86.7
Art2a (GeneID 11871) | 3 | 64.6 | 71.3
Kazn (GeneID 71529) | 1 | 32.7 | 47.1
Kazn (GeneID 71529) | 2 | 69.2 | 86.7
Kazn (GeneID 71529) | 3 | 90.2 | 89
Dcaf8l (GeneID 18630) | 1 | 36.7 | 53.9
Dcaf8l (GeneID 18630) | 2 | 73.3 | 73.7
Dcaf8l (GeneID 18630) | 3 | 46.8 | 80.6
Scamp1 (GeneID 107767) | 1 | 69.6 | 58.5
Scamp1 (GeneID 107767) | 2 | 92.1 | 84
Scamp1 (GeneID 107767) | 3 | 31.9 | 36.7
Cmtm1 (GeneID 100504164) | 1 | 67.9 | 81.2
Cmtm1 (GeneID 100504164) | 2 | 103 | 82.9
Cmtm1 (GeneID 100504164) | 3 | 88.1 | 124
Ska2 (GeneID 66140) | 1 | 76.2 | 83.8
Ska2 (GeneID 66140) | 2 | 123 (active) | 108
Ska2 (GeneID 66140) | 3 | 76 | 55.3
Fimp1 (GeneID 78118) | 1 | 66.9 | 29.5
Fimp1 (GeneID 78118) | 2 | 73 | 55.7
Fimp1 (GeneID 78118) | 3 | 97.6 | 104
Igdcc3 (GeneID 19289) | 1 | 80.2 | 47.8
Igdcc3 (GeneID 19289) | 2 | 68.2 | 48
Igdcc3 (GeneID 19289) | 3 | 110 | 108
Napsa (GeneID 16541) | 1 | 77.5 | 102
Napsa (GeneID 16541) | 2 | 51.3 | 60.9
Napsa (GeneID 16541) | 3 | 61.9 | 62.8
Ccdc142 (GeneID 243510) | 1 | 71.4 | 70.6
Ccdc142 (GeneID 243510) | 2 | 28.9 | 29.4
Ccdc142 (GeneID 243510) | 3 | 64.2 | 81.3
Lrrc56 (GeneID 70552) | 1 | 73.8 | 58.2
Lrrc56 (GeneID 70552) | 2 | 53.1 | 69.7
Lrrc56 (GeneID 70552) | 3 | 49.7 | 74.6
Baz2a (GeneID 116848) | 1 | 109 | 112
Baz2a (GeneID 116848) | 2 | 135 (active) | 118
Baz2a (GeneID 116848) | 3 | 122 (active) | 96.5
Atg4a (GeneID 666468) | 1 | 65.8 | 75.6
Atg4a (GeneID 666468) | 2 | 82.4 | 86.4
Atg4a (GeneID 666468) | 3 | 66.9 | 66.8
2310033P09Rik (GeneID 67862) | 1 | 49.5 | 39.6
2310033P09Rik (GeneID 67862) | 2 | 101 | 60.3
2310033P09Rik (GeneID 67862) | 3 | 45.4 | 64.5
Eml4 (GeneID 78798) | 1 | 100 | 90.1
Eml4 (GeneID 78798) | 2 | 98.8 | 76.8
Rpl4 (GeneID 67891) | 1 | 75.9 | 88.3
Rpl4 (GeneID 67891) | 2 | 60.1 | 42.4
Rpl4 (GeneID 67891) | 3 | 41.8 | 53.9
Tex29 (GeneID 75528) | 1 | 61.5 | 80.5
Tex29 (GeneID 75528) | 2 | 79.1 | 86.5
Tex29 (GeneID 75528) | 3 | 61.5 | 76.7
Plxnc1 (GeneID 54712) | 1 | 75.3 | 88
Proser1 (GeneID 212127) | 1 | 72.1 | 79.1
Proser1 (GeneID 212127) | 2 | 63.1 | 65.3
Proser1 (GeneID 212127) | 3 | 74.8 | 70
Gramd2b (GeneID 107022) | 1 | 118 | 67.9
Gramd2b (GeneID 107022) | 2 | 72.7 | 88.4
Gramd2b (GeneID 107022) | 3 | 69.7 | 64.9
Nlrp9c (GeneID 330490) | 1 | 76.9 | 96.6
Nlrp9c (GeneID 330490) | 2 | 65.7 | 83.2
Nlrp9c (GeneID 330490) | 3 | 79.6 | 46.3
C230029F24Rik (GeneID 442837) | 1 | 50.8 | 69.4
C230029F24Rik (GeneID 442837) | 2 | 68.7 | 60.3
C230029F24Rik (GeneID 442837) | 3 | 102 | 119
Morc2b (GeneID 240069) | 1 | 90.3 | 70.1
Morc2b (GeneID 240069) | 2 | 70.7 | 59.2
Morc2b (GeneID 240069) | 3 | 91.7 | 93.6
Sec61a2 (GeneID 57743) | 1 | 54.7 | 51.6
Sec61a2 (GeneID 57743) | 2 | 124 (active) | 80.8
Sec61a2 (GeneID 57743) | 3 | 85.5 | 88.4
Mrpl13 (GeneID 68537) | 1 | 40.1 | 58
Mrpl13 (GeneID 68537) | 2 | 111 | 67.7
Mrpl13 (GeneID 68537) | 3 | 75.9 | 73.9
Bdkrb2 (GeneID 12062) | 1 | 143 (active) | 101
Bdkrb2 (GeneID 12062) | 2 | 110 | 78.9
Bdkrb2 (GeneID 12062) | 3 | 82.7 | 58.5
Adam3 (GeneID 11497) | 1 | 29.4 | 73.2
Adam3 (GeneID 11497) | 2 | 47.2 | 87.8
Adam3 (GeneID 11497) | 3 | 79.5 | 91.6

Laid out differently: results already given
{"gene": "Sec61a2 (GeneID 57743)", "siRNA no.": 1, "GFP, % of control": 54.7, "viability (ATP), % of control": 51.6}
{"gene": "Sec61a2 (GeneID 57743)", "siRNA no.": 2, "GFP, % of control": "124 (active)", "viability (ATP), % of control": 80.8}
{"gene": "Sec61a2 (GeneID 57743)", "siRNA no.": 3, "GFP, % of control": 85.5, "viability (ATP), % of control": 88.4}
{"gene": "Mrpl13 (GeneID 68537)", "siRNA no.": 1, "GFP, % of control": 40.1, "viability (ATP), % of control": 58}
{"gene": "Mrpl13 (GeneID 68537)", "siRNA no.": 2, "GFP, % of control": 111, "viability (ATP), % of control": 67.7}
